Laboratory results taken from patent publication US10016480B2, “Peptide-based methods for treating pancreatic cancer” (The United States of America, as represented by the …, priority 2014, dated 2018).
At least one peptide structure holds a part that was inferred or is arguable (an end, a ring closure or a residue). No end group written: not given here.

Test system: KP16 transgenic mouse model of pancreatic cancer
Assay: KP16 transgenic mouse model of pancreatic cancer
Assay type: in vivo
Conditions: in combination with gemcitabine, transgenic mice

Question: Which survival does the source give for “FAKKFAKKFK [Peptide B, Phe-Ala-Lys-Lys-Phe-Ala-Lys-Lys-Phe-Lys]” here?
Answer: extension of survival

Question: And the survival (listed as peptide B)?
Answer: extended life
